Source: patent US20200392223A1, “IL-17A ACTIVITY INHIBITOR AND USE THEREOF” (TOKAI UNIVERSITY EDUCATIONAL SYSTEM, priority 2018, published 2020)
For at least one compound, name, drawing or mass did not settle the structure.

System: rat nucleus pulposus (NP) cell
Experiment: mRNA expression (real time RT-PCR) in rat NP cells treated with IL-17A under 1% oxygen
Assay type: cell-based
Conditions: inhibitor 10 μM + IL-17A 50 ng/ml, 24 hours
Experimental: Nucleus pulposus cells were separated from a Sprague Dawley rat aged 11 weeks according to a method in Risbud et al (Journal of cellular biochemistry 98, 152-159, 2006; doi:10.1002/jcb.20765). […]
The cultured rat nucleus pulposus cells were treated with 20 or 50 ng/mL of recombinant mouse IL-17A (Pepro Tech Inc., USA, #210-17) for 24 hours, expression levels of mRNAs of IL-6, COX-2, mPGES1, MMP-3, and MMP-13 were determined by real time RT-PCR according to the following procedure. […] Template cDNA and a primer specific to each gene were added to Power SYBR Green master mix (Applied Biosystems) and an expression level of mRNA of each gene was determined using Step One Plus Real-time PCR System (Applied Biosystems). […]
A p38 phosphorylation inhibitor “SB203580” with a concentration of 10 μM, a JNK phosphorylation inhibitor “SP600125” with a concentration of 10 μM, or an ERK phosphorylation inhibitor “PD98059” with a concentration of 10 μM was administered to rat NP cells together with recombinant mouse IL-17A with a concentration of 50 ng/ml, or alternatively, these inhibitors were not administered, and the cells were cultured under a 1% oxygen condition for 24 hours, and an expression level of mRNA of each of COX-2 and IL-6 was determined by real time RT-PCR according to the same procedure as that of [Reference Example 2]. […]

For `Oc1c2ccccc2c2c3c(cccc13)N=N2` [SP, SP600125, reference compound], the “expression level of mRNA of COX-2” value was “significantly suppressed”.
